Reference: paper doi:10.1101/2022.09.06.506770

Amino acid sequences for entries named in this document (tags omitted). A change or cut given only in a name is not applied to a line headed by its entry.
UniProt P02919: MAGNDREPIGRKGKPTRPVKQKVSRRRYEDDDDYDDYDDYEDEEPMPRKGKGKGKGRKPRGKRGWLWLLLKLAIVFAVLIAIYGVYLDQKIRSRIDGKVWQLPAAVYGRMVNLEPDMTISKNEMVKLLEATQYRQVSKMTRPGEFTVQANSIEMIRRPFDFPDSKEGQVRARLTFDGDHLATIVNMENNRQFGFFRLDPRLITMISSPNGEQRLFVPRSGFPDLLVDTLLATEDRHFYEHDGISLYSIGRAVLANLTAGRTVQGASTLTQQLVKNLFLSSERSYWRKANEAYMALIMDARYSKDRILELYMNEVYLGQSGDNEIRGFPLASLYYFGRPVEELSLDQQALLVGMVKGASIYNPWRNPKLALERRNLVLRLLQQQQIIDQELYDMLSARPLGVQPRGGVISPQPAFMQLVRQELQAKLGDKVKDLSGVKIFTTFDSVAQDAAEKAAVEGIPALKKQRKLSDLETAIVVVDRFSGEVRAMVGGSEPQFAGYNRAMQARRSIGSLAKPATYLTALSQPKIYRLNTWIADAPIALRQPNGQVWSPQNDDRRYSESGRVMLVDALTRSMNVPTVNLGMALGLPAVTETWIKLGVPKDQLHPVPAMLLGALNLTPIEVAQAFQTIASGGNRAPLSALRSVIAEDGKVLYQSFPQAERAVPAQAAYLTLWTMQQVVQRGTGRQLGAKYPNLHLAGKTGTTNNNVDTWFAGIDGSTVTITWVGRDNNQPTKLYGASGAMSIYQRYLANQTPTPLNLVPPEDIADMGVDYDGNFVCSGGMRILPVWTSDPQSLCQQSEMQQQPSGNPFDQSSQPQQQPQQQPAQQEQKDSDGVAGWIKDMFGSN

Experiments:
Experiment in all cases: pull-down
[1] = molecular target: T1, His-tagged DacC (pET28a plasmid, ER2566) (Escherichia coli) (UniProt P08506)
T1 sequence: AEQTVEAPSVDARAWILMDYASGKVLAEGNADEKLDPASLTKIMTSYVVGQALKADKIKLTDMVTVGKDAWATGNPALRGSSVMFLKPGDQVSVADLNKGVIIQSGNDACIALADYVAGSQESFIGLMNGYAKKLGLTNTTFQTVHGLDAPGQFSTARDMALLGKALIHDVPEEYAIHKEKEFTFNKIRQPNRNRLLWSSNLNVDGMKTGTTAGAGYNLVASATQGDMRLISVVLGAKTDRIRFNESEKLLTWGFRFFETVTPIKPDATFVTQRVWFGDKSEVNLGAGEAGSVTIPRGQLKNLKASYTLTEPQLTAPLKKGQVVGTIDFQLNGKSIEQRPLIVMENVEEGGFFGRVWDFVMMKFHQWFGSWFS

[2] = molecular target: T2, His-tagged DacA (pET28a plasmid, ER2566) (Escherichia coli) (UniProt P0AEB2)
T2 sequence: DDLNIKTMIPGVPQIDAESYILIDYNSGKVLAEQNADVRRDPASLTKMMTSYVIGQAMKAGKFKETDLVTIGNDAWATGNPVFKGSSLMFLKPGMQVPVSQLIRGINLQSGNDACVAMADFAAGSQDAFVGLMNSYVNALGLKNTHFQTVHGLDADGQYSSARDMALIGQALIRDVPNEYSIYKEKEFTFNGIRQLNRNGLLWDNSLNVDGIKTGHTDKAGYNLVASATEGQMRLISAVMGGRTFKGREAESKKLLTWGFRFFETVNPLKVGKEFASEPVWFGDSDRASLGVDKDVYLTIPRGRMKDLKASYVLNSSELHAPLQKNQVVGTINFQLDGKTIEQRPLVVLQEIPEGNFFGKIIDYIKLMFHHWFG

[3] = molecular target: T1, His-tagged DacC (pET28a plasmid, ER2566) (Escherichia coli); remark: listed apart in the source
[4] = molecular target: T2, His-tagged DacA (pET28a plasmid, ER2566) (Escherichia coli); remark: listed apart in the source

Measured: binding

non-tagged PBP1b (pET24a plasmid, ER2566) (from UniProt P02919) (enzyme)
binds: all assays above

Read-outs that look alike come from different tables or passages of the source. No constants are given. Whether binding was seen depends on the method and setting. In cells and extracts the contact can be indirect. A result given as binding can be weak or reduced; the word gives no strength. Where a sequence is shown, tags or fusion partners need not be part of it.
